Structures were worked out from names or drawings and are uncertain.
Biological target: MMP-9 (92 kDa, gelatinase B; type IV collagenase) (Homo sapiens, UniProt P14780)
Assay: Assay of type IV collagenase inhibitors: activated MMP-9 with type IV collagenase activity kit substrate, fluorescent intensity
Format: biochemical
Conditions: inhibition of type IV collagenase (MMP-9), concentration at which percent inhibition reaches 50%

Protein sequences, listed by entry. Tags and fused reporters are not part of them. Residues count along the entry.
UniProt P14780, 107-707 limits assumed: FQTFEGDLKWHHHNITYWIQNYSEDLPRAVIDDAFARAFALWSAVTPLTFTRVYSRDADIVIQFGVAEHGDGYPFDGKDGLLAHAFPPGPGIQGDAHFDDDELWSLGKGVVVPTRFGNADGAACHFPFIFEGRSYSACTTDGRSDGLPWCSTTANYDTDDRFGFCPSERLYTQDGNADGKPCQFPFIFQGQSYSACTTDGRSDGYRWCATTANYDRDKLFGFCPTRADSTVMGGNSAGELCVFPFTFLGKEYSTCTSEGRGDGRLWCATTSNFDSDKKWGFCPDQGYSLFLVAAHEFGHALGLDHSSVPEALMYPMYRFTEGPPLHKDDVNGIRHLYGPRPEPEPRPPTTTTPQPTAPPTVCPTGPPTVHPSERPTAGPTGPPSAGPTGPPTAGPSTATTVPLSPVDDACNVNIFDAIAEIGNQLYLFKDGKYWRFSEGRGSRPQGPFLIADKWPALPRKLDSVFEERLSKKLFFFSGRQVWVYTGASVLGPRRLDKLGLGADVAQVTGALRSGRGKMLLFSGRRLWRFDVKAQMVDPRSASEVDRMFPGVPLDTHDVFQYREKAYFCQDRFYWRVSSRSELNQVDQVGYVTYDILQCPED

IC50 [nM]	Structure (SMILES)
2030	O=C(O)[C@@H](Cc1ccccc1)NS(=O)(=O)c1ccc(-c2ccc(F)cc2)s1
39.5	CSc1ccc(-c2ccc(S(=O)(=O)N[C@H](Cc3ccccc3)C(=O)O)s2)cc1

From patent US6441021B1, “Sulfonated amino acid derivatives and metalloproteinase inhibitors containing the same” (Shionogi & Co., Ltd., priority 1996, dated 2002)
